Test results: PMC7907794
Results are given in words; binding and its absence hold for the method and conditions named. Binding seen in cells or lysates may run through a third protein. Some results given as binding are weak or reduced against the parent protein; the word gives no strength.

Biological target: T1, interferon regulatory factor 3 (UniProt Q14653)
T1 sequence: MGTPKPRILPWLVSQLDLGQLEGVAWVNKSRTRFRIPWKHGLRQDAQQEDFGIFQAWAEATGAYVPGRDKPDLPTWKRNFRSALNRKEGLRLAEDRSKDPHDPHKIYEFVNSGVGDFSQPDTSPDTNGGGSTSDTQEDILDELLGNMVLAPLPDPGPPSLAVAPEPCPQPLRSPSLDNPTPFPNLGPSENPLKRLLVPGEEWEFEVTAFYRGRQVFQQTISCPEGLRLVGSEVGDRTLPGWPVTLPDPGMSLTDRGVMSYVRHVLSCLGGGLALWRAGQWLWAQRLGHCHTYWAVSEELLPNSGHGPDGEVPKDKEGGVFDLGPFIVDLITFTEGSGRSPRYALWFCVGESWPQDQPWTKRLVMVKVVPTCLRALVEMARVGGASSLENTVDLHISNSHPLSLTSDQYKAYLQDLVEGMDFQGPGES
Assay: co-IP

B1: TBK1 (protein, UniProt Q9UHD2 1-729)
chain: MQSTSNHLWLLSDILGQGATANVFRGRHKKTGDLFAIKVFNNISFLRPVDVQMREFEVLKKLNHKNIVKLFAIEEETTTRHKVLIMEFCPCGSLYTVLEEPSNAYGLPESEFLIVLRDVVGGMNHLRENGIVHRDIKPGNIMRVIGEDGQSVYKLTDFGAARELEDDEQFVSLYGTEEYLHPDMYERAVLRKDHQKKYGATVDLWSIGVTFYHAATGSLPFRPFEGPRRNKEVMYKIITGKPSGAISGVQKAENGPIDWSGDMPVSCSLSRGLQVLLTPVLANILEADQEKCWGFDQFFAETSDILHRMVIHVFSLQQMTAHKIYIHSYNTATIFHELVYKQTKIISSNQELIYEGRRLVLEPGRLAQHFPKTTEENPIFVVSREPLNTIGLIYEKISLPKVHPRYDLDGDASMAKAITGVVCYACRIASTLLLYQELMRKGIRWLIELIKDDYNETVHKKTEVVITLDFCIRNIEKTVKVYEKLMKINLEAAELGEISDIHTKLLRLSSSQGTIETSLQDIDSRLSPGGSLADAWAHQEGTHPKDRNVEKLQVLLNCMTEIYYQFKKDKAERRLAYNEEQIHKFDKQKLYYHATKAMTHFTDECVKKYEAFLNKSEEWIRKMLHLRKQLLSLTNQCFDIEEEVSKYQEYTNELQETLPQKMFTASSGIKHTMTPIYPSSNTLVEMTLGMKKLKEEMEGVVKELAENNHILERFGSLTMDGGLRNVDCL
- binding: binds
